Test results taken from PMC10517209.
No constants are given. Whether binding was seen depends on the method and setting. In cells and extracts the contact can be indirect. Some results given as binding are weak or reduced against the parent protein; the word gives no strength.

Amino acid sequences for entries named in this document (tags omitted).
UniProt P08670: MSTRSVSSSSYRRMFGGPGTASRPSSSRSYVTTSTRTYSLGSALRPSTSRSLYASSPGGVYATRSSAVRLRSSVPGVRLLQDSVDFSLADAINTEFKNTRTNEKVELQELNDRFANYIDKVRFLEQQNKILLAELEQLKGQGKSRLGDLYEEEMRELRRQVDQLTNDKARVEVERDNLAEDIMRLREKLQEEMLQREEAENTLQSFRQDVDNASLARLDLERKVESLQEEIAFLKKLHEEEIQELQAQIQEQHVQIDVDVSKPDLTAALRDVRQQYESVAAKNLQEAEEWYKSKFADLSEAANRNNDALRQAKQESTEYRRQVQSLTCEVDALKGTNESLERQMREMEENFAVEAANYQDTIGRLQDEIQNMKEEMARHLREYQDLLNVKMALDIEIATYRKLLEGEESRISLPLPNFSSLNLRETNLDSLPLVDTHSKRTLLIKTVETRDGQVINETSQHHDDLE
UniProt Q86TM6: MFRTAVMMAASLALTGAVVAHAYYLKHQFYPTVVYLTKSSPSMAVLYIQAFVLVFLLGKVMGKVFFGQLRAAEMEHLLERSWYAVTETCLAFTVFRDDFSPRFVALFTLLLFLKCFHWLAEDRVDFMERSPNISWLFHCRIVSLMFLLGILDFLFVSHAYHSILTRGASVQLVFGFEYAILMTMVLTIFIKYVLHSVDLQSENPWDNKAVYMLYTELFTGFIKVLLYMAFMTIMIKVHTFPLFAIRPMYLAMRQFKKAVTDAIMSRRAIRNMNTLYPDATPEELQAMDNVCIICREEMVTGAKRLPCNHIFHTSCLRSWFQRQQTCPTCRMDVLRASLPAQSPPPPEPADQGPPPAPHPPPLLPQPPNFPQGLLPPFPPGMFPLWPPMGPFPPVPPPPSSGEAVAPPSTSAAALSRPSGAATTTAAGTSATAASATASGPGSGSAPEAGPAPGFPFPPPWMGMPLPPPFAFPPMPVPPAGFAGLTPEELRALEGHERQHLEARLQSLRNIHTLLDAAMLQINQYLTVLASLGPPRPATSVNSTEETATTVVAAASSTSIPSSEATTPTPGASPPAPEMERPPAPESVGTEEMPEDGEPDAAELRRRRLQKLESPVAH

Molecular target: Vimentin (human (endogenous in C28/I2)) (UniProt P08670)
Experiment: co-IP; cells treated with 20 uM MG132 for 8 h, then lysed; Pierce Classic Magnetic IP Kit with antibodies (1:100) to FLAG or Vimentin; western blot; control cells and cells with circARPC1B overexpression or knockdown

binding: binds
Substance: E3 ligase synoviolin 1 (SYVN1) (from UniProt Q86TM6 1-617) (enzyme)
